Literature values in patent US20140045927A1, “PREPARATIONS OF TAXANES FOR INTRAVENOUS ADMINISTRATION AND THE PREPARATION METHOD THEREOF” (Tianjin Tasly Group Co., Ltd., priority 2009, published 2014).

Settings: in water

water-solubility: 4 µg/mL
Structure (SMILES): CC(=O)O[C@H]1C(=O)[C@@]2(C)[C@H]([C@H](OC(=O)c3ccccc3)[C@]3(O)C[C@H](OC(=O)[C@H](O)[C@@H](NC(=O)c4ccccc4)c4ccccc4)C(C)=C1C3(C)C)[C@]1(OC(C)=O)CO[C@@H]1C[C@@H]2O [paclitaxel]
